Some results were stated once for a whole list of compounds, not compound by compound.
These compounds were tested on Human recombinant AMPK (assay: AMPK Enzymatic Assay (Z'Lyte FRET format)). Conditions: AMPK activation, ATP 100 μM, means of at least 2 independent experiments.
Assay type: biochemical

Compound | average pEC200 (-Log(compound concentration leading to a 2-fold AMPK activity increase)) | average pEC50
COc1cccc(Oc2c(O)c3cc(-c4ccc(C(C)C)cc4)c(Cl)cc3[nH]c2=O)c1 [Example 74, 7-Chloro-4-hydroxy-6-(4-isopropylphenyl)-3-(3-methoxyphenoxy)quinolin-2(1H)-one] | greater than or equal to 5.0 | –
CCc1ccc(-c2cc3c(O)c(Oc4ccccc4)c(=O)[nH]c3cc2Cl)cc1 [Example 70, 7-Chloro-6-(4-ethylphenyl)-4-hydroxy-3-phenoxyquinolin-2(1H)-one] | greater than or equal to 5.0 | –
CN(C)c1ccc(-c2cc3c(O)c(-n4cncn4)c(=O)[nH]c3cc2Cl)cc1 [Example 86, 7-Chloro-6-(4-(dimethylamino)phenyl)-4-hydroxy-3-(1H-1,2,4-triazol-1-yl)quinolin-2(1H)-one] | greater than or equal to 5.0 | –
Cc1cc(-c2c(O)c3cc(-c4ccc(N5CCCC5)cc4)c(Cl)cc3[nH]c2=O)n(C)n1 [Example 130, 7-Chloro-3-(1,3-dimethyl-1H-pyrazol-5-yl)-4-hydroxy-6-(4-(pyrrolidin-1-yl)phenyl)quinolin-2(1H)-one] | greater than or equal to 5.0 | –
COc1cccc(-c2c(O)c3cc(-c4ccc(N5CCOCC5)cc4)c(Cl)cc3[nH]c2=O)c1 [Example 3, 7-chloro-4-hydroxy-3-(3-methoxyphenyl)-6-(4-morpholinophenyl)quinolin-2(1H)-one] | greater than or equal to 5.0 | –
Cn1ccc2cc(-c3cc4c(O)c([N+](=O)[O-])c(=O)[nH]c4cc3Cl)ccc21 [Example 29, 7-Chloro-4-hydroxy-6-(1-methyl-1H-indol-5-yl)-3-nitroquinolin-2(1H)-one] | greater than or equal to 5.0 | –
Cc1cccc(-c2c(O)c3cc(-c4ccc(N(C)C)cc4)c(Cl)cc3[nH]c2=O)c1 [Example 159, 7-Chloro-6-(4-(dimethylamino)phenyl)-4-hydroxy-3-(m-tolyl)quinolin-2(1H)-one] | greater than or equal to 5.0 | –
CN(C)c1ccc(-c2cc3c(O)c(Oc4ccc(F)cc4)c(=O)[nH]c3cc2Cl)cc1 [Example 94, 7-Chloro-6-(4-(dimethylamino)phenyl)-3-(4-fluorophenoxy)-4-hydroxyquinolin-2(1H)-one] | greater than or equal to 5.0 | –
COc1cccc(Oc2c(O)c3cc(-c4ccc(N(C)C)cc4)c(Cl)cc3[nH]c2=O)c1 [Example 72, 7-Chloro-6-(4-(dimethylamino)phenyl)-4-hydroxy-3-(3-methoxyphenoxy)quinolin-2(1H)-one] | greater than or equal to 5.0 | –
CN(C)c1ccc(-c2cc3c(O)c(-n4cc(Cl)cn4)c(=O)[nH]c3cc2Cl)cc1 [Example 128, 7-Chloro-3-(4-chloro-1H-pyrazol-1-yl)-6-(4-(dimethylamino)phenyl)-4-hydroxyquinolin-2(1H)-one] | greater than or equal to 5.0 | –
O=c1[nH]c2cc(Cl)c(-c3ccc(N4CCCC4)cc3)cc2c(O)c1-c1ccncc1 [Example 107, 7-Chloro-4-hydroxy-3-(pyridin-4-yl)-6-(4-(pyrrolidin-1-yl)phenyl)quinolin-2(1H)-one] | greater than or equal to 5.0 | –
COc1cccc(-c2ccc(-c3cc4c(O)c(-n5cccn5)c(=O)[nH]c4cc3Cl)cc2)c1 [7-chloro-4-hydroxy-6-(3′-methoxy-[1,1′-biphenyl]-4-yl)-3-(1H-pyrazol-1-yl)quinolin-2(1H)-one] | less than 5.0 | less than 5.5
Cc1cc(-c2c(O)c3cc(-c4ccc(-c5ccccc5F)cc4)c(Cl)cc3[nH]c2=O)on1 [Example 18, 7-Chloro-6-(2′-fluoro-[1,1′-biphenyl]-4-yl)-4-hydroxy-3-(3-methylisoxazol-5-yl)quinolin-2(1H)-one] | greater than or equal to 5.0 | –
CN(C)c1ccc(-c2cc3c(O)c(-c4ccccc4Cl)c(=O)[nH]c3cc2Cl)cc1 [Example 154, 7-Chloro-3-(2-chlorophenyl)-6-(4-(dimethylamino)phenyl)-4-hydroxyquinolin-2(1H)-one] | greater than or equal to 5.0 | –
O=c1[nH]c2cc(Cl)c(-c3ccc(N4CCCC4)cc3)cc2c(O)c1Oc1ccccc1 [Example 69, 7-Chloro-4-hydroxy-3-phenoxy-6-(4-(pyrrolidin-1-yl)phenyl)quinolin-2(1H)-one] | greater than or equal to 5.0 | –
O=c1cc(O)c2cc(-c3ccc(N4CCOCC4)cc3)c(Cl)cc2[nH]1 [Example 192, 7-Chloro-4-hydroxy-6-[4-(4-morpholinyl)phenyl]quinolin-2(1H)-one] | greater than or equal to 5.0 | –

Compound | average pEC200 (-Log(compound concentration leading to a 2-fold AMPK activity increase)) | average pEC50
COc1cccc(-c2ccc(-c3cc4c(O)c(-c5cc(C)no5)c(=O)[nH]c4cc3Cl)cc2)c1 [Example 15, 7-Chloro-4-hydroxy-6-(3′-methoxy-[1,1′-biphenyl]-4-yl)-3-(3-methylisoxazol-5-yl)quinolin-2(1H)-one] | greater than or equal to 5.0 | –
COc1cccc(-c2ccc(-c3cc4c(O)c(-c5ccccc5)c(=O)[nH]c4cc3Cl)cc2)c1O [Example 1, 7-chloro-4-hydroxy-6-(2′-hydroxy-3′-methoxy-[1,1′-biphenyl]-4-yl)-3-phenyl quinolin-2(1H)-one] | greater than or equal to 5.0 | –
Cn1ccc2cc(-c3cc4c(O)c(S(=O)(=O)c5ccccc5)c(=O)[nH]c4cc3Cl)ccc21 [Example 148, 7-Chloro-4-hydroxy-6-(1-methyl-1H-indol-5-yl)-3-(phenylsulfonyl)quinolin-2(1H)-one] | greater than or equal to 5.0 | –
COc1ccc(-c2ccc(-c3cc4c(O)c(-c5cc(C)no5)c(=O)[nH]c4cc3Cl)cc2)cc1 [Example 17, 7-Chloro-4-hydroxy-6-(4′-methoxy-[1,1′-biphenyl]-4-yl)-3-(3-methylisoxazol-5-yl)quinolin-2(1H)-one] | greater than or equal to 5.0 | –
Cc1cc(-c2c(O)c3cc(-c4ccc5c(ccn5C)c4)c(Cl)cc3[nH]c2=O)n(C)n1 [Example 127, 7-Chloro-3-(1,3-dimethyl-1H-pyrazol-5-yl)-4-hydroxy-6-(1-methyl-1H-indol-5-yl)quinolin-2(1H)-one] | greater than or equal to 5.0 | –
Cc1cc(-c2c(O)c3cc(-c4ccc5c(c4)CCN5C)c(Cl)cc3[nH]c2=O)on1 [Example 157, 7-Chloro-4-hydroxy-6-(1-methylindolin-5-yl)-3-(3-methylisoxazol-5-yl)quinolin-2(1H)-one] | greater than or equal to 5.0 | –
Cn1ccc2cc(-c3cc4c(O)cc(=O)[nH]c4cc3Cl)ccc21 [Example 191, 7-Chloro-4-hydroxy-6-(1-methyl-1H-indol-5-yl)quinolin-2(1H)-one] | greater than or equal to 5.0 | –
Cc1nonc1-c1c(O)c2cc(-c3ccc(N(C)C)cc3)c(Cl)cc2[nH]c1=O [Example 83, 7-Chloro-6-(4-(dimethylamino)phenyl)-4-hydroxy-3-(4-methyl-1,2,5-oxadiazol-3-yl)quinolin-2(1H)-one] | greater than or equal to 5.0 | –
Cc1cnn(-c2c(O)c3cc(-c4ccc(N(C)C)cc4)c(Cl)cc3[nH]c2=O)c1 [Example 89, 7-Chloro-6-(4-(dimethylamino)phenyl)-4-hydroxy-3-(4-methyl-1H-pyrazol-1-yl)quinolin-2(1H)-one] | greater than or equal to 5.0 | –
COC(=O)C1(c2ccc(-c3cc4c(O)c(-c5cc(C)no5)c(=O)[nH]c4cc3Cl)cc2)CC1 [Example 165, Methyl 1-(4-(7-chloro-4-hydroxy-3-(3-methylisoxazol-5-yl)-2-oxo-1,2-dihydroquinolin-6-yl)phenyl)cyclopropane carboxylate] | greater than or equal to 5.0 | –
Cc1ccn(-c2c(O)c3cc(-c4ccc(N5CCCC5)cc4)c(Cl)cc3[nH]c2=O)n1 [7-chloro-4-hydroxy-3-(3-methyl-1H-pyrazol-1-yl)-6-(4-(pyrrolidin-1-yl)phenyl)quinolin-2(1H)-one] | less than 5.0 | less than 5.5
COc1cccc(Oc2c(O)c3cc(-c4ccc5c(ccn5C)c4)c(Cl)cc3[nH]c2=O)c1 [Example 129, 7-Chloro-4-hydroxy-3-(3-methoxyphenoxy)-6-(1-methyl-1H-indol-5-yl)quinolin-2(1H)-one] | greater than or equal to 5.0 | –
O=c1[nH]c2cc(Cl)c(-c3ccc(OCC4CC4)cc3)cc2c(O)c1-n1cccn1 [Example 76, 7-Chloro-6-(4-(cyclopropylmethoxy)phenyl)-4-hydroxy-3-(1H-pyrazol-1-yl)quinolin-2(1H)-one] | greater than or equal to 5.0 | –
CN(C)c1ccc(-c2cc3c(O)c(-c4ccccc4)c(=O)[nH]c3cc2Cl)cc1 [Example 46, 7-Chloro-6-(4-(dimethylamino)phenyl)-4-hydroxy-3-phenylquinolin-2(1H)-one] | greater than or equal to 5.0 | –
Cc1nonc1-c1c(O)c2cc(-c3ccc(N4CCCCC4)cc3)c(Cl)cc2[nH]c1=O [Example 143, 7-Chloro-4-hydroxy-3-(4-methyl-1,2,5-oxadiazol-3-yl)-6-(4-(piperidin-1-yl)phenyl)quinolin-2(1H)-one] | greater than or equal to 5.0 | –

Reference: US9855260B2, “Quinolinone derivatives” (GlaxoSmithKline LLC, priority 2011, dated 2018)
